From patent US9127027B2, “Epoxyeicosatrienoic acid analogs and methods of making and using the same” (The Medical College of Wisconsin, Inc., priority 2011, dated 2015) come the findings set out here.

The subject of the assay is Hela, NCCIT and U87. Description: Cell viability (alamar blue) in cancer cell lines. To be noted: range over Hela, 72 h, read-out: IC50 cell growth inhibition. In kind it is cell-based, human. As to the method: In this study, HEK293, U87MG, Hela cell-lines were obtained from the ATCC (Manassas, Va., USA) (HEK293, U87MG, Hela), and NCCIT was collected from Department of Pediatrics, UT Southwestern Medical Center at Dallas, Tex., USA. All cell lines were maintained in DMEM or RPIM with 10% fetal bovine serum and penicillin/streptomycin purchased from Life Technologies (Grand Island, N.Y., USA). Cisplatin was purchased from either Sigma (St. Louis, Mo., USA) or CalBiochem/EMD Biosciences (Billerica, Mass., USA). Cells were seeded in 96-well plates at 500 to 4,000 cells per well depends on cell type. […] Cell viability was measured by alamar blue assay using resazurin (Sigma Aldrich) according to the manufacturer's guidelines. Viability results were measured by fluorescence/absorbance in a 96-well plate reader from BMG Labtech (Cary, N.C., USA) and the IC50 was calculated by GraphPad Prism® software (GraphPad Software Inc, La Jolla, Calif., USA).

As to `N.N.[Cl][Pt][Cl]` [cisplatin], the IC50 (commonly the point on the concentration scale where inhibition reaches its midpoint) lay in the range of 1.1 to 9.24 µM.
